Publication doi:10.1101/2025.06.18.660436
No constants are given. Whether binding was seen depends on the method and setting. Binding seen in cells or lysates may run through a third protein. Here binding means that the protein was enriched with, or labelled near, the bait; the list need not be complete.

By UniProt entry, the sequences of proteins in these tests, tags left out.
UniProt Q16665, whole entry: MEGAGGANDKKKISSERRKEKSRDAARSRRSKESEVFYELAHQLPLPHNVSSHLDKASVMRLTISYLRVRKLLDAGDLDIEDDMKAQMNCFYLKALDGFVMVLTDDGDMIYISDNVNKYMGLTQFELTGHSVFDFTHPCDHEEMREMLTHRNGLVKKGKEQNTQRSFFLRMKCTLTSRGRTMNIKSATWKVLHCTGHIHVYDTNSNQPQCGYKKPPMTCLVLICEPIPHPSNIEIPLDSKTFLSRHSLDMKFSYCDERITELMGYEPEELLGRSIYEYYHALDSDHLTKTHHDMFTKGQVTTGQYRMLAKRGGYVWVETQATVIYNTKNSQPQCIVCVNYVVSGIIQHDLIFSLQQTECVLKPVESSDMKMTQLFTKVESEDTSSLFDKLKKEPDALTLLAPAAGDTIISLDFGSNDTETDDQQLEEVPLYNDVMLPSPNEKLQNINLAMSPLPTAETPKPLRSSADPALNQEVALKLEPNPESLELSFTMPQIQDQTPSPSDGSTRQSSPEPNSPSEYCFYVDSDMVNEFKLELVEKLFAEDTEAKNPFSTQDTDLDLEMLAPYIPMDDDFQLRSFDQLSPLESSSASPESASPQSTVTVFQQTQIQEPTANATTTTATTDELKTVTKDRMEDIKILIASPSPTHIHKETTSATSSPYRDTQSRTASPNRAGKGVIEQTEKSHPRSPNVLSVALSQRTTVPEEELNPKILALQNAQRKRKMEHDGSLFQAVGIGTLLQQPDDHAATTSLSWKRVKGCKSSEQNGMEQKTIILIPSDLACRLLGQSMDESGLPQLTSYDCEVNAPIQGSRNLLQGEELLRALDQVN

Molecular target: HIF-1α fused to the biotin ligase BioID2 (UniProt Q16665)
Experiment: proximity labelling

B1: UBFD1 (endogenous) (protein, UniProt O14562 1-309)
chain: MAAAGAPDGMEEPGMDTEAETVATEAPARPVNCLEAEAAAGAAAEDSGAARGSLQPAPAQPPGDPAAQASVSNGEDAGGGAGRELVDLKIIWNKTKHDVKFPLDSTGSELKQKIHSITGLPPAMQKVMYKGLVPEDKTLREIKVTSGAKIMVVGSTINDVLAVNTPKDAAQQDAKAEENKKEPLCRQKQHRKVLDKGKPEDVMPSVKGAQERLPTVPLSGMYNKSGGKVRLTFKLEQDQLWIGTKERTEKLPMGSIKNVVSEPIEGHEDYHMMAFQLGPTEASYYWVYWVPTQYVDAIKDTVLGKWQYF
binding: binds
